Laboratory results reported in patent publication US10138292B2, “Cell culture medium” (BIOLAMINA AB, priority 2010, dated 2018).
At least one structure is not confirmed: it was looked up by name or label, or the drawing left a doubt.

System: hES cells
Experiment: Inhibition of survival assay on LN-521
Assay type: cell-based, human
Details: medium contained bFGF
Protocol: The survival assay was performed as described for the cell adhesion assay above, except that the cells were left in the cell incubator for 24 hours. For inhibition of survival assay, the cells were kept in a medium with function blocking antibodies at the concentrations recommended by the manufacturer or pathway inhibitors at concentrations indicated in the text for 30 minutes, and then plated on the coated dishes. All the experiments were performed in quadruplicate.

COC[C@H]1OC(=O)c2coc3c2[C@@]1(C)C1=C(C3=O)[C@@H]2CCC(=O)[C@@]2(C)C[C@H]1OC(C)=O [Wortmannin]
hES cell survival 24 hours after plating on LN-521 with pathway inhibitor: failed to survive
